The source of these data is PMC5752508.

For the test, the target named is Serine 139-phosphorylated H2AX (γ-H2AX), endogenous in MCF7 cells (human (endogenous in MCF7)) (UniProt P16104). The test can be described thus: co-IP; IP with anti-γ-H2AX antibody and protein A/G agarose from whole-cell extracts of MCF7 cells treated with etoposide, overnight at 4°C; Western blot.

These are yes or no findings as the source states them, for the method shown. Binding seen in cells or lysates may run through a third protein. Some binding calls cover weakened binding; strength is not graded here.

As for “Pyruvate kinase M2 (PKM2), endogenous in MCF7 cells (from UniProt P14618 1-531) (enzyme)”, the binding result is reported as “binds”.
